The supplement of paper PMC3353916
This is a noisy data set.

Tested on: Sindbis virus TE/5'2J-GFP
Test: percent infected (GFP+ in RFP+ ISG-expressing cells); higher = more infection (less antiviral activity)
Conditions: experiment: primary screen (single well)

Sequence	percent infected (BHK/HA-Zeo (control)) [%]	percent infected (BHK/NZAP-Zeo (ZAP)) [%]
MQAKKRYFILLSAGSCLALLFYFGGLQFRASRSHSRREEHSGRNGLHHPSPDHFWPRFPDALRPFVPWDQLENEDSSVHISPRQKRDANSSIYKGKKCRMESCFDFTLCKKNGFKVYVYPQQKGEKIAESYQNILAAIEGSRFYTSDPSQACLFVLSLDTLDRDQLSPQYVHNLRSKVQSLHLWNNGRNHLIFNLYSGTWPDYTEDVGFDIGQAMLAKASISTENFRPNFDVSIPLFSKDHPRTGGERGFLKFNTIPPLRKYMLVFKGKRYLTGIGSDTRNALYHVHNGEDVVLLTTCKHGKDWQKHKDSRCDRDNTEYEKYDYREMLHNATFCLVPRGRRLGSFRFLEALQAACVPVMLSNGWELPFSEVINWNQAAVIGDERLLLQIPSTIRSIHQDKILALRQQTQFLWEAYFSSVEKIVLTTLEIIQDRIFKHISRNSLIWNKHPGGLFVLPQYSSYLGDFPYYYANLGLKPPSKFTAVIHAVTPLVSQSQPVLKLLVAAAKSQYCAQIIVLWNCDKPLPAKHRWPATAVPVVVIEGESKVMSSRFLPYDNIITDAVLSLDEDTVLSTTEVDFAFTVWQSFPERIVGYPARSHFWDNSKERWGYTSKWTNDYSMVLTGAAIYHKYYHYLYSHYLPASLKNMVDQLANCEDILMNFLVSAVTKLPPIKVTQKKQYKETMMGQTSRASRWADPDHFAQRQSCMNTFASWFGYMPLIHSQMRLDPVLFKDQVSILRKKYRDIERL [EXT1]	97.9	94.2
MQEGELAISPISPVAAMPPLGTHVQARCEAQINLLGEGGICKLPGRLRIQPALWSREDVLHWLRWAEQEYSLPCTAEHGFEMNGRALCILTKDDFRHRAPSSGDVLYELLQYIKTQRRALVCGPFFGGIFRLKTPTQHSPVPPEEVTGPSQMDTRRGHLLQPPDPGLTSNFGHLDDPGLARWTPGKEESLNLCHCAELGCRTQGVCSFPAMPQAPIDGRIADCRLLWDYVYQLLLDTRYEPYIKWEDKDAKIFRVVDPNGLARLWGNHKNRVNMTYEKMSRALRHYYKLNIIKKEPGQKLLFRFLKTPGKMVQDKHSHLEPLESQEQDRIEFKDKRPEISP [ETV7]	97.4	82.6
MQLRKMQTVKKEQASLDASSNVDKMMVLNSALTEVSEDSTTGEELLLSEGSVGKNKSSACRRKREFIPDEKKDAMYWEKRRKNNEAAKRSREKRRLNDLVLENKLIALGEENATLKAELLSLKLKFGLISSTAYAQEIQKLSNSTAVYFQDYQTSKSNVSSFVDEHEPSMVSSSCISVIKHSPQSSLSDVSEVSSVEHTQESSVQGSCRSPENKFQIIKQEPMELESYTREPRDDRGSYTASIYQNYMGNSFSGYSHSPPLLQVNRSSSNSPRTSETDDGVVGKSSDGEDEQQVPKGPIHSPVELKHVHATVVKVPEVNSSALPHKLRIKAKAMQIKVEAFDNEFEATQKLSSPIDMTSKRHFELEKHSAPSMVHSSLTPFSVQVTNIQDWSLKSEHWHQKELSGKTQNSFKTGVVEMKDSGYKVSDPENLYLKQGIANLSAEVVSLKRLIATQPISASDSG [NFIL3]	98.1	92.3
MQPWHGKAMQRASEAGATAPKASARNARGAPMDPTESPAAPEAALPKAGKFGPARKSGSRQKKSAPDTQERPPVRATGARAKKAPQRAQDTQPSDATSAPGAEGLEPPAAREPALSRAGSCRQRGARCSTKPRPPPGPWDVPSPGLPVSAPILVRRDAAPGASKLRAVLEKLKLSRDDISTAAGMVKGVVDHLLLRLKCDSAFRGVGLLNTGSYYEHVKISAPNEFDVMFKLEVPRIQLEEYSNTRAYYFVKFKRNPKENPLSQFLEGEILSASKMLSKFRKIIKEEINDIKDTDVIMKRKRGGSPAVTLLISEKISVDITLALESKSSWPASTQEGLRIQNWLSAKVRKQLRLKPFYLVPKHAKEGNGFQEETWRLSFSHIEKEILNNHGKSKTCCENKEEKCCRKDCLKLMKYLLEQLKERFKDKKHLDKFSSYHVKTAFFHVCTQNPQDSQWDRKDLGLCFDNCVTYFLQCLRTEKLENYFIPEFNLFSSNLIDKRSKEFLTKQIEYERNNEFPVFDEF [C6orf150]	98.5	96.6
MQTCPLAFPGHVSQALGTLLFLAASLSAQNEGWDSPICTEGVVSVSWGENTVMSCNISNAFSHVNIKLRAHGQESAIFNEVAPGYFSRDGWQLQVQGGVAQLVIKGARDSHAGLYMWHLVGHQRNNRQVTLEVSGAEPQSAPDTGFWPVPAVVTAVFILLVALVMFAWYRCRCSQQRREKKFFLLEPQMKVAALRAGAQQGLSRASAELWTPDSEPTPRPLALVFKPSPLGALELLSPQPLFPYAADP [SECTM1]	97.6	91.6
MRAAAISTPKLDKMPGMFFSANPKELKGTTHSLLDDKMQKRRPKTFGMDMKAYLRSMIPHLESGMKSSKSKDVLSAAEVMQWSQSLEKLLANQTGQNVFGSFLKSEFSEENIEFWLACEDYKKTESDLLPCKAEEIYKAFVHSDAAKQINIDFRTRESTAKKIKAPTPTCFDEAQKVIYTLMEKDSYPRFLKSDIYLNLLNDLQANSLK [RGS1]	96.8	85.3
MRLPDLRPWTSLLLVDAALLWLLQGPLGTLLPQGLPGLWLEGTLRLGGLWGLLKLRGLLGFVGTLLLPLCLATPLTVSLRALVAGASRAPPARVASAPWSWLLVGYGAAGLSWSLWAVLSPPGAQEKEQDQVNNKVLMWRLLKLSRPDLPLLVAAFFFLVLAVLGETLIPHYSGRVIDILGGDFDPHAFASAIFFMCLFSFGSSLSAGCRGGCFTYTMSRINLRIREQLFSSLLRQDLGFFQETKTGELNSRLSSDTTLMSNWLPLNANVLLRSLVKVVGLYGFMLSISPRLTLLSLLHMPFTIAAEKVYNTRHQEVLREIQDAVARAGQVVREAVGGLQTVRSFGAEEHEVCRYKEALEQCRQLYWRRDLERALYLLVRRVLHLGVQMLMLSCGLQQMQDGELTQGSLLSFMIYQESVGSYVQTLVYIYGDMLSNVGAAEKVFSYMDRQPNLPSPGTLAPTTLQGVVKFQDVSFAYPNRPDRPVLKGLTFTLRPGEVTALVGPNGSGKSTVAALLQNLYQPTGGQVLLDEKPISQYEHCYLHSQVVSVGQEPVLFSGSVRNNIAYGLQSCEDDKVMAAAQAAHADDFIQEMEHGIYTDVGEKGSQLAAGQKQRLAIARALVRDPRVLILDEATSALDVQCEQALQDWNSRGDRTVLVIAHRLQTVQRAHQILVLQEGKLQKLAQL [TAP2]	97.8	91.8
MRQKAVSLFLCYLLLFTCSGVEAGKKKCSESSDSGSGFWKALTFMAVGGGLAVAGLPALGFTGAGIAANSVAASLMSWSAILNGGGVPAGGLVATLQSLGAGGSSVVIGNIGALMGYATHKYLDSEEDEE [IFI6]	92.8	86.4
MRRLWGAARKPSGAGWEKEWAEAPQEAPGAWSGRLGPGRSGRKGRAVPGWASWPAHLALAARPARHLGGAGQGPRPLHSGTAPFHSRASGERQRRLEPQLQHESRCRSSTPADAWRAEAALPVRAMGAPWGSPTAAAGGRRGWRRGRGLPWTVCVLAAAGLTCTALITYACWGQLPPLPWASPTPSRPVGVLLWWEPFGGRDSAPRPPPDCRLRFNISGCRLLTDRASYGEAQAVLFHHRDLVKGPPDWPPPWGIQAHTAEEVDLRVLDYEEAAAAAEALATSSPRPPGQRWVWMNFESPSHSPGLRSLASNLFNWTLSYRADSDVFVPYGYLYPRSHPGDPPSGLAPPLSRKQGLVAWVVSHWDERQARVRYYHQLSQHVTVDVFGRGGPGQPVPEIGLLHTVARYKFYLAFENSQHLDYITEKLWRNALLAGAVPVVLGPDRANYERFVPRGAFIHVDDFPSASSLASYLLFLDRNPAVYRRYFHWRRSYAVHITSFWDEPWCRVCQAVQRAGDRPKSIRNLASWFER [FUT4]	89.7	82.9
MRSARSTALNRGEQRAVRYYSHMKLNMAEEEDYMSDSFINVQEDIRPGLPMLRQIREARRKEEKQQEANLKNRQKSLKEEEQERRDIGLKNALGCENKGFALLQKMGYKSGQALGKSGGGIVEPIPLNIKTGKSGIGHEASLKRKAEEKLESYRKKIHMKNQAEEKAAEQFRMRLKNKQDEMKLEGDLRRSQRACQQLDVQKNIQVPREAWYWLRLEEETEEDEEEKEQDEDEYKSEDLSVLEKLQILTSYLREEHLYCIWCGTAYEDKEDLSSNCPGPTSADHD [CCDC75]	95.3	84.2
